This note sets out measurements from article PMC4745749.

No constants are given. Whether binding was seen depends on the method and setting. For some of these results: Binding seen in cells or lysates may run through a third protein. Some binding calls cover weakened binding; strength is not graded here. For some of these results: Tags and fused reporters may be left off the sequences shown.

Assay [1] deals with T1, dRad6 (yeast two-hybrid bait) (D. melanogaster) (UniProt P25153).
T1 sequence: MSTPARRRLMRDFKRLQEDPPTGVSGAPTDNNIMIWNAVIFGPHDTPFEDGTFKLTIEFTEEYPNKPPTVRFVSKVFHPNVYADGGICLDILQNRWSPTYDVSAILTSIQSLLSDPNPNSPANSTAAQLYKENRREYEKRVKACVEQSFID
Nature of the assay: two-hybrid; yeast two-hybrid screening with dRad6 as bait; data not shown.

The target of assay [2] is T2, HA-tagged dRad6 (D. melanogaster) (UniProt P25153).
T2 sequence: T1 sequence
The assay is described as follows: co-IP; Drosophila S2 cells transfected with HA-tagged dRad6 or GFP-tagged dASF1; IP with anti-HA or anti-GFP, blots with anti-dASF1 or anti-dRad6; cells treated with 50 μM MG132 for 10 h, or with or without 0.1% MMS for 24 h (MMS promoted the interaction).

The target in assay [3] is T3, GST-dRad6 fusion protein (D. melanogaster) (UniProt P25153).
T3 sequence: T1 sequence
The assay is described as follows: pull-down; GST pull-down with GST-dRad6 fusion protein (Supplementary Figure S2A), called in vitro.

Assay [4] addresses T4, GFP-tagged dASF1 (D. melanogaster) (UniProt Q9V464).
T4 sequence: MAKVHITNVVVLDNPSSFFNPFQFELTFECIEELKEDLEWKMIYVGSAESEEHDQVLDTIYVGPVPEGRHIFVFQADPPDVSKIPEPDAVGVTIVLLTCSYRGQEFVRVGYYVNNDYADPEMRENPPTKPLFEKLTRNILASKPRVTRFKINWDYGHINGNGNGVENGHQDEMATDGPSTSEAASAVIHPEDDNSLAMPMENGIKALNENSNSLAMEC
Nature of the assay: co-IP; Drosophila S2 cells transfected with HA-tagged dRad6 or GFP-tagged dASF1; IP with anti-HA or anti-GFP, blots with anti-dASF1 or anti-dRad6; cells treated with 50 μM MG132 for 10 h, or with or without 0.1% MMS for 24 h (MMS promoted the interaction).

B1: dASF1 (yeast two-hybrid prey) (protein, UniProt Q9V464 1-218)
chain: T4 sequence
With B1, the binding result in assay [1] is on record as “binds”.

B2: dASF1 (endogenous, S2 cells) (protein, UniProt Q9V464 1-218)
chain: T4 sequence
Consider B2, for which the binding entry in assay [2] was “binds weakly”.

B3: dASF1 (GST pull-down) (protein, UniProt Q9V464 1-218)
chain: T4 sequence
B3: the binding entry in assay [3] is recorded as “binds”.

B4: dRad6 (endogenous, S2 cells) (enzyme, UniProt P25153 1-151)
chain: T1 sequence
With B4, in assay [4], the binding entry is on record as “binds weakly”.
